Taken from: PubChem BioAssay AID652243 (Drosophila RNAi Screening Center, 2013)
The screen tested about 24,000 reagents; below is a random part of those with a known target gene and a result. Over the whole deposit, 246 (1%) were called active. 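Plates not normalised; calls are printed but the firefly/Renilla ratio behind them is not deposited; fold cut for lowering reported inconsistently.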 Raw values are not corrected between plates. A plus sign joins genes that one reagent is predicted to hit. The record does not give: the amount of reagent.

Test: 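Knock-downs that decrease or increase androgen receptor reporter signal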 (primary screen)
System: Drosophila S2R+ cells
Knock-down reagent: long dsRNA against Drosophila genes
Timing: 72 h (48 h, then 24 h hormone)
Conditions: synthetic androgen R1881 at 10 nM for 24 h
Detection: 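Firefly light from an androgen-responsive reporter and Renilla control light per well, raw and unnormalised, for each of two replicates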
Reading the numbers: firefly reporter light: higher = more light from androgen-responsive reporter; Renilla control light: higher = more constitutive control signal (cell number, transfection)
Active means: 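Across duplicate plates, a knock-down whose log firefly/Renilla ratio shifted a set fold down or up from the GFP/LacZ control mean was a hit; the downward cut appears as both 1.5 and 3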
Meaning of the calls: active = hit: reporter lowered or raised; inactive = no hit

no.	Gene	dsRNA	firefly reporter light, replicate 1	firefly reporter light, replicate 2	Renilla control light, replicate 1	Renilla control light, replicate 2	Call
1	swi2	DRSC06457	42121	66334	7.64e5	7.64e5	inactive
2	Hacl (2-hydroxyacyl-CoA lyase)	DRSC06061	9.36e5	5.09e5	1.21e6	8.55e5	inactive
3	crim (crimpled)	DRSC10573	1.49e6	1.34e6	1.18e6	1.40e6	inactive
4	CG33639	DRSC19966	3.61e5	3.76e5	2.76e6	2.81e6	inactive
5	CG33639	DRSC22820	4.49e5	8.82e5	9.38e5	1.55e6	inactive
6	CG33639	DRSC23778	8.38e5	9.07e5	9.69e5	8.38e5	inactive
7	CG13408	DRSC13534	93496	55483	1.80e5	1.33e5	inactive
8	CG13408	DRSC14584	3.38e5	4.22e5	3.52e6	2.97e6	inactive
9	sut3 (sugar transporter 3)	DRSC07702	3.43e5	3.05e5	2.00e6	2.07e6	inactive
10	sut3 (sugar transporter 3)	DRSC24322	2.28e5	2.46e5	8.44e5	5.86e5	inactive
11	bora (aurora borealis)	DRSC10744	30101	11824	5.80e5	3.60e5	inactive
12	CG8646	DRSC07230	2.47e5	2.43e5	1.83e6	1.64e6	inactive
13	CG17906 + alien	DRSC24008	8.58e5	7.76e5	1.07e6	9.45e5	inactive
14	Rabex-5 (Rabaptin-5-associated exchange factor for Rab5)	DRSC08628	7.75e5	1.18e6	1.48e6	2.23e6	inactive
15	Rabex-5 (Rabaptin-5-associated exchange factor for Rab5)	DRSC29819	5.98e5	4.12e5	1.50e6	1.25e6	inactive
16	CG3356	DRSC04358	8.39e5	6.97e5	1.13e6	1.14e6	inactive
17	CG3356	DRSC28869	3.97e5	2.75e5	9.96e5	7.94e5	inactive
18	CR32011 + CR32010 + PlexB + 1 more	DRSC21664	7.03e5	7.58e5	2.41e6	1.57e6	inactive
19	CR32011 + CR32010 + PlexB + 1 more	DRSC26099	3.10e5	3.72e5	6.57e5	5.37e5	inactive
20	side-III (sidestep III)	DRSC12155	43913	31652	1.33e6	9.23e5	inactive
21	side-III (sidestep III)	DRSC12264	85461	1.06e5	2.58e6	2.02e6	inactive
22	side-III (sidestep III)	DRSC24955	1.20e6	8.70e5	8.27e5	6.71e5	inactive
23	side-III (sidestep III)	DRSC30000	2.50e5	2.01e5	1.14e6	1.40e6	inactive
24	png (pan gu)	DRSC18582	2.22e5	2.47e5	4.48e6	3.82e6	inactive
25	png (pan gu)	DRSC26812	4.08e5	3.55e5	7.54e5	7.46e5	inactive
26	crb (crumbs)	DRSC16927	70825	48526	4.50e5	4.82e5	inactive
27	crb (crumbs)	DRSC39156	8.03e5	5.13e5	2.12e6	1.54e6	inactive
28	egr (eiger)	DRSC06233	4.18e5	3.82e5	2.34e6	2.22e6	inactive
29	l(2)37Bb (lethal (2) 37Bb)	DRSC02088	3.80e5	4.33e5	2.66e6	2.46e6	inactive
30	mRpS34 (mitochondrial ribosomal protein S34)	DRSC09918	2.05e5	2.04e5	1.46e6	1.65e6	inactive
31	mRpS34 (mitochondrial ribosomal protein S34)	DRSC29248	6.46e5	3.96e5	1.13e6	1.15e6	inactive
32	Ak2 (Adenylate kinase 2)	DRSC04043	2.98e5	2.56e5	1.80e6	1.62e6	inactive
33	Ak2 (Adenylate kinase 2)	DRSC36736					inactive
34	CG32452	DRSC11581	1.54e5	1.40e5	5.16e5	3.52e5	inactive
35	CG32452	DRSC22250	6.06e5	7.03e5	2.94e6	2.54e6	inactive
36	CG32452	DRSC26705	3.28e5	2.69e5	3.51e5	3.97e5	inactive
37	Picot	DRSC07508	9.55e5	1.99e5	1.05e6	3.83e5	inactive
38	Picot	DRSC24256	4.65e5	3.53e5	4.37e5	4.80e5	inactive
39	Vm26Aa (Vitelline membrane 26Aa)	DRSC03472	21160	45232	4.98e5	6.04e5	inactive
40	Vm26Aa (Vitelline membrane 26Aa)	DRSC25243	3.25e5	2.81e5	1.08e6	5.74e5	inactive
41	rn (rotund)	DRSC12543	43689	55167	1.24e6	1.06e6	inactive
42	rn (rotund)	DRSC12544	55286	69694	9.87e5	1.01e6	inactive
43	rn (rotund)	DRSC12546	1.48e5	1.11e5	2.12e6	2.35e6	inactive
44	rn (rotund)	DRSC22291	50762	36222	3.92e5	3.61e5	inactive
45	rn (rotund)	DRSC25073	7.77e5	4.57e5	1.96e6	5.14e5	inactive
46	rn (rotund)	DRSC27211	2.82e5	1.89e5	4.84e5	2.58e5	inactive
47	Ir41a (Ionotropic receptor 41a)	DRSC04730	67828	60252	86033	1.06e5	inactive
48	Ir41a (Ionotropic receptor 41a)	DRSC04875	4.38e5	4.47e5	2.81e6	2.82e6	inactive
49	pyd (polychaetoid)	DRSC14387	1.17e5	1.19e5	5.27e5	6.67e5	inactive
50	pyd (polychaetoid)	DRSC14445	1.55e5	1.98e5	1.09e6	1.17e6	inactive
51	pyd (polychaetoid)	DRSC14509	89013	1.40e5	1.24e6	1.26e6	inactive
52	pyd (polychaetoid)	DRSC16547	16651	41665	2.09e5	2.46e5	inactive
53	pyd (polychaetoid)	DRSC17041	1.02e5	1.15e5	2.11e6	1.96e6	inactive
54	pyd (polychaetoid)	DRSC23116	4.43e5	5.81e5	1.38e6	1.83e6	inactive
55	pyd (polychaetoid)	DRSC26890	3.21e5	2.35e5	4.44e5	4.66e5	inactive
56	SLO2 (slowpoke 2)	DRSC06214	3.88e5	2.40e5	1.98e6	1.61e6	inactive
57	SLO2 (slowpoke 2)	DRSC06216	3.36e5	2.19e5	2.44e6	1.43e6	inactive
58	SLO2 (slowpoke 2)	DRSC06218	3.17e5	2.28e5	1.98e6	1.95e6	inactive
59	SLO2 (slowpoke 2)	DRSC23225	3.79e5	4.61e5	8.69e5	1.23e6	inactive
60	SLO2 (slowpoke 2)	DRSC27805	2.32e5	2.48e5	5.37e5	8.16e5	inactive

4 successive reagents from above:
no.	Gene	dsRNA	firefly reporter light, replicate 1	firefly reporter light, replicate 2	Renilla control light, replicate 1	Renilla control light, replicate 2	Call
5	CG33639	DRSC22820	4.49e5	8.82e5	9.38e5	1.55e6	inactive
6	CG33639	DRSC23778	8.38e5	9.07e5	9.69e5	8.38e5	inactive
7	CG13408	DRSC13534	93496	55483	1.80e5	1.33e5	inactive
8	CG13408	DRSC14584	3.38e5	4.22e5	3.52e6	2.97e6	inactive
